From patent US20250223366A1, “MONOCLONAL ANTIBODIES AND BISPECIFIC ANTIBODY AGAINST C-MET” (BIOTHEUS INC., priority 2022, published 2025)
Results are given in words; binding and its absence hold for the method and conditions named. Some results given as binding are weak or reduced against the parent protein; the word gives no strength.

Target: monkey c-MET protein (monkey)
Assay: ForteBio (BLI) affinity assay

binding | Binder
binds | anti-c-MET antibody 136 (antibody, V domains shown) VH: EVQLQESGPGLVKPSETLSLTCTVSGGSVTSVNYYWKWIRQPPGKGLEWIGYISYSGNTNYNPSLKSRVTISVDTSKNQFSLKLSSVTAADTAVYYCVRAPYYYMDVWSKGTTVTVSS VL: DIVMTQSPSSVSASVGDRVTITCRASQGISSWLAWYQQKPGKAPKLLIYAVSSLQSGVPSRFSGSGSGTDFTLTISSLQPEDFATYFCQQANSFPLTFGGGTKVEIK
binds | anti-c-MET antibody 187 (antibody, V domains shown) VH: ELQLQESGPGLVKPSETLSLTCTVSGGSISSSSYYWGWIRQSPGKGLEWIGSRYYSGNTYYNPSLKSRVTMSVDTSKNQFSLKLRSVTAADTAVYYCARQVYDYWRDWGQGALVTVSS VL: DIVMTQSPSSVSASVGDRVTITCRASQGISSWLAWYQQKPGKAPNLLIYAASNLPSGVPSRFSGSGSGTVFTLTISSLQPEDFATYYCQQSNSFPLTFGGGTKVEIK
